Measured data: PubChem BioAssay AID1259261 (Sanger Institute, 2017)

Assay: 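siRNA screen across the kinome for kinases that are essential and partners synergising with drugs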 (primary screen)
Cells: HCC2998 human colorectal cancer cells
Knock-down reagent: siRNA pool against human genes
Conditions: anchor drugs BYL719 1 µM, cetuximab 5 µg/ml or trametinib 10 nM, each compared with DMSO vehicle
Measurement: 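Cell viability relative to non-targeting siRNA, averaged over replicates, with robust z-score for siRNA alone and synergy scores with each anchor drug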
Scale: viability z-score, knock-down alone: higher = more viable cells than controls; viability fraction, knock-down alone: higher = more viable cells
Rule for the call: 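a knock-down is called essential if its robust z-score without drug is under -3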
Meaning of the calls: active = essential; inactive = no change
Shown is a random part of 794 reagents. Of all reagents, 10 (1.3%) got an active call. 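Calls reflect knock-down alone without drug; synergy scores with BYL719, cetuximab or trametinib do not affect calls.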 Viability is capped at 1. Further read-outs or replicates are left out here. Not given: the amount of reagent, the time to read-out.

The opening 2 entries, to show the layout:
no.	gene symbol	viability z-score, knock-down alone	viability fraction, knock-down alone	Call
1	MTOR (mechanistic target of rapamycin kinase)	1.21	1	inactive
2	EGFR (epidermal growth factor receptor)	-0.0177	0.847	inactive

Results, from the start:
no.	gene symbol	viability z-score, knock-down alone	viability fraction, knock-down alone	Call
1	MTOR (mechanistic target of rapamycin kinase)	1.21	1	inactive
2	EGFR (epidermal growth factor receptor)	-0.0177	0.847	inactive
3	PRPS1 (phosphoribosyl pyrophosphate synthetase 1)	-0.618	0.771	inactive
4	DLG3 (discs large MAGUK scaffold protein 3)	-1.35	0.68	inactive
5	MATK (megakaryocyte-associated tyrosine kinase)	0.526	0.915	inactive
6	APC (APC regulator of Wnt signaling pathway)	0.528	0.915	inactive
7	PKM (pyruvate kinase M1/2)	-0.538	0.781	inactive
8	HUNK (hormonally up-regulated Neu-associated kinase)	-3.2	0.448	active
9	CALM1 (calmodulin 1)	0.0686	0.857	inactive
10	MAP3K5 (mitogen-activated protein kinase kinase kinase 5)	1.21	1	inactive
11	BPTF (bromodomain PHD finger transcription factor)	-0.982	0.726	inactive
12	CDK14 (cyclin dependent kinase 14)	-0.181	0.826	inactive
13	SOS2 (SOS Ras/Rho guanine nucleotide exchange factor 2)	0.154	0.868	inactive
14	SRPK2 (SRSF protein kinase 2)	0.396	0.898	inactive
15	PKN2 (protein kinase N2)	1.21	1	inactive
16	CUL1 (cullin 1)	0.101	0.862	inactive
17	EIF2AK2 (eukaryotic translation initiation factor 2 alpha kinase 2)	1.21	1	inactive
18	LATS1 (large tumor suppressor kinase 1)	0.214	0.876	inactive
19	PKN3 (protein kinase N3)	0.334	0.891	inactive
20	DYRK3 (dual specificity tyrosine phosphorylation regulated kinase 3)	0.417	0.901	inactive
